Source: PubChem BioAssay AID588499 (NMMLSC, 2011)
About 610 (0.17%) of roughly 360,000 compounds were called active. Inconclusive means that the source gave no clear call. Such entries were picked first, then a sample of the others. Rule as the data show it: active = inhibition above about 30%; inconclusive = no clear call, values can overlap the other calls; inactive = below that.

The compounds below were run on Botulinum neurotoxin type A light chain protease (Clostridium botulinum A str. ATCC 3502) (assay: blockers of BoNT/A LC substrate cleavage – biochemical, flow cytometry, MLPCN library, primary screen (AID 588499; also: plate controls were buffer without enzyme for full effect and enzyme alone for no effect)). Conditions: multiplex microsphere protease substrate cleavage, at 10 µM, active compounds read high.
In the case of `Cc1nc(N)nc(N)c1Oc1ccc(Cl)cc1`, the inhibition is reported as inactive: -0.2%. `Cn1cc([N+](=O)[O-])c(C(=O)n2cccn2)n1` was tested, and the inhibition was inconclusive: 6.1%. `CCC(C)N(C(=O)c1csnn1)C(C(=O)NCc1ccc(F)cc1)c1ccco1` (stereo not given) was tested, and the inhibition was inconclusive: 45.7%. `CCOc1ccc2nc(NC(=O)c3ccco3)sc2c1` was tested, and the inhibition was inactive: 2.8%. In the case of `O=C(CCn1c(SCC(=O)NCc2ccco2)nc2ccccc2c1=O)NCCc1ccccc1`, the inhibition is reported as inconclusive: 0.2%. In the case of `Cc1ccc(NC(=O)CSc2nnc(-c3ccc(S(=O)(=O)N4CCOCC4)cc3)n2C)cc1`, the inhibition is reported as inconclusive: 2.5%. In the case of `CCOC(=O)N1CCC(NC(=O)c2oc3c(F)cccc3c2C)CC1`, the inhibition is reported as inactive: 0.6%. `CCCc1nc(SCC(=O)N2CCc3ccccc3C2)c2ccccc2n1` was tested, and the inhibition was inconclusive: -1.6%. In the case of `Cc1cc2cc(CN3C(=O)c4ccccc4C3=O)ccc2n1C`, the inhibition is reported as active: 88.3%. In the case of `O=C(Nc1ccccc1Cl)c1ccc(-c2ccccn2)s1`, the inhibition is reported as inconclusive: -47.7%. With `CC(C)(C)c1ccc(CN2C(=O)CN=C(c3ccccc3)c3ccccc32)cc1` the inhibition was inconclusive: 1.1%. In the case of `CCOc1ccc(NC(=O)N(CC(C)C)CC(C)C)cc1`, the inhibition is reported as inconclusive: 1.2%. With `CC(=O)Nc1c2c(nn1-c1cccc(Cl)c1)CS(=O)(=O)C2` the inhibition was inactive: 4.2%. `COc1cccc(NC(=O)Cn2c(SCC(=O)N3CCOCC3)nc3ccccc32)c1` was tested, and the inhibition was inconclusive: -0.1%. For `C=CCn1c(O)c(C(CC)=NCCc2c[nH]c3ccccc23)c(=O)[nH]c1=O`, the inhibition was inconclusive: -53%. `Cc1cccc2cc3c(N)c(C#N)sc3nc12` was tested, and the inhibition was inactive: 5.6%. `N#Cc1cc2c(nc1SCC(=O)Nc1cc(Cl)ccc1Cl)C1CCN2CC1` was tested, and the inhibition was inconclusive: 0.1%. `Cc1cc(C(F)(F)F)nn1CC(=O)NNC(=S)Nc1ccc(Cl)cc1` was tested, and the inhibition was inconclusive: 1.2%. `Cc1ccc2[nH]c(CN3CCN(C)C(CCO)C3)c(C)c2c1` (stereo not given) was tested, and the inhibition was inconclusive: 4.6%. In the case of `Cc1c[nH]c2cccc(OCC(CNC(C)(C)C)OC(=O)c3ccccc3)c12` (stereo not given), the inhibition is reported as inactive: 0.7%. For `CCOC(=O)c1[nH]c(=S)[nH]c1C`, the inhibition was inactive: -0.3%. For `COc1ccc(OC)c(NC(=O)CSc2nc(=O)n(Cc3ccccn3)c3c2CCC3)c1`, the inhibition was inconclusive: -1.1%. `O=c1c2cc(-c3ccccc3)sc2nc2n1N=C(c1ccccc1)CS2` was tested, and the inhibition was inconclusive: 0%. For `COCCNCC(=O)N1CCCCCC1`, the inhibition was inactive: 0.5%. For `Cc1ccc(C(=O)NNC(=O)c2cc(OCC(F)(F)F)ccc2OCC(F)(F)F)cc1`, the inhibition was inconclusive: -4.9%. In the case of `COc1ccccc1CC(=O)c1ccccc1OC`, the inhibition is reported as inactive: 0.4%. For `COC(=O)c1ccc(CSc2nnc(SCc3ccc(C(=O)OC)o3)s2)o1`, the inhibition was inactive: 1.3%. For `CN(C)c1ccc(-c2noc(C3CCN(S(=O)(=O)c4cccc(Cl)c4)CC3)n2)cc1`, the inhibition was inconclusive: -4.7%. In the case of `CSc1nc2c(c(-c3ccccc3)c1C#N)CCC2`, the inhibition is reported as inconclusive: 2.4%. With `COc1ccc(/C=C2\SC(=Nc3ccccc3OC)NC2=O)cc1` the inhibition was inconclusive: -4.8%. In the case of `Cc1cccc(N/C(N)=N/c2nc(C)cc(=O)[nH]2)c1`, the inhibition is reported as inactive: -3.6%. `CCCC(=O)N1CCN(c2nc(CC(C)C)c3c(c2C#N)CCC3)CC1` was tested, and the inhibition was inactive: -0.8%. With `Cc1ccsc1C1CC(=O)Nc2ccccc2S1` (stereo not given) the inhibition was inconclusive: -25.5%. With `O=C(Nc1ccc2c(c1)OCCO2)c1c(F)cccc1F` the inhibition was inconclusive: 2.7%. `Cc1cc2cc(C(c3nnnn3Cc3ccccc3)N3CCc4ccccc43)c(=O)[nH]c2cc1C` (stereo not given) was tested, and the inhibition was inconclusive: 2.1%. For `CCOCCCn1c(=N)c(C(=O)NCc2ccc3c(c2)OCO3)cc2c(=O)n3cccc(C)c3nc21`, the inhibition was inactive: 4.5%. In the case of `Cn1nc(C(C)(C)C)cc1C(=O)NNC(=O)c1ccccc1Cl`, the inhibition is reported as inconclusive: -19.4%. With `Cc1ccc(S(=O)(=O)/N=C(/Nc2nc(C)cs2)c2ccccc2)cc1` the inhibition was inactive: -0.4%. `O=C(O)C1(NS(=O)(=O)c2ccc(Cl)cc2)CCCCC1` was tested, and the inhibition was inconclusive: 1.9%. With `Cc1nc(C(=O)NNC(=O)Nc2ccc(Cl)cc2)cs1` the inhibition was inconclusive: -3.2%. `Cc1ccc(C(=O)N/N=C\c2ccc[nH]2)cn1` was tested, and the inhibition was inactive: -0.1%. For `CCOc1ccccc1NC(=O)CSc1nnc(Cc2ccc(OC)cc2)c(=O)n1N`, the inhibition was inconclusive: -2.6%. For `C=C(C)c1cccc(C(C)(C)NC(=O)NCc2ccc(OC)cc2)c1`, the inhibition was inactive: -0.1%. In the case of `Cc1ccc(NC2=NC(c3ccccc3)n3c(nc(C)cc3=O)N2)c(C)c1` (stereo not given), the inhibition is reported as inactive: 0.3%. In the case of `COc1ccc(NC(=O)c2oc3ccccc3c2C)c(OC)c1`, the inhibition is reported as inconclusive: -1.1%. For `CCCC1NC(=O)c2cc3ccccc3cc2-n2c1nc1cc(F)ccc1c2=O` (stereo not given), the inhibition was inactive: -0.4%. `O=C(CCc1nnc(C2CCCCC2)o1)N1CCN(Cc2ccccc2)CC1` was tested, and the inhibition was inactive: -1.1%. With `Brc1ccc(-c2nn3c(-c4ccccn4)nnc3s2)o1` the inhibition was inactive: -2.1%. `O=C(NCC1CCCO1)c1cc2n(n1)C(C(F)(F)F)CC(c1ccc(F)cc1)N2` (stereo not given) was tested, and the inhibition was inconclusive: -2.8%. In the case of `CC(=O)OCCCN1C(=O)c2ccc(Br)cc2C1=O`, the inhibition is reported as inconclusive: 1.2%. In the case of `COc1ccc([N+](=O)[O-])cc1NC(=O)C(C)OC(=O)CSC(C)C(=O)Nc1cc(C)on1` (stereo not given), the inhibition is reported as inactive: 2.4%. `COCCNS(=O)(=O)c1ccc(Cl)c(C(=O)NC2CCN(Cc3ccccc3)CC2)c1` was tested, and the inhibition was inactive: -0.9%. For `O=C(NCCc1ccccc1)c1cccc(NC(=O)C2CCCCC2)c1`, the inhibition was inactive: 0.1%. With `CCOC(=O)CC(=O)CSc1nc2c(sc(=S)n2-c2ccccc2)c(=O)[nH]1` the inhibition was inconclusive: 2.3%. In the case of `O=C(CN1CCCCCC1)NCC1CCCO1` (stereo not given), the inhibition is reported as inactive: -0.9%. For `CN(C)/C(=N\O)c1c(Cl)cccc1Cl`, the inhibition was inconclusive: -1.8%. With `CC(=O)c1c(C(C)=O)c(C)n(NC(=O)c2ccccc2O)c1C` the inhibition was inconclusive: 6.1%. `CC(C)(C)c1ccc(OCCC(=O)OCC(=O)NC(=O)NC2CCCC2)cc1` was tested, and the inhibition was inconclusive: 0.8%. `CCOc1ccc(NCCC(=O)c2ccc3c(c2)OCO3)cc1` was tested, and the inhibition was inconclusive: -0.6%. `CCN1/C(=C/C=C/c2oc3ccc(-c4ccccc4)cc3[n+]2CC)Oc2ccc(-c3ccccc3)cc21` was tested, and the inhibition was active: 43.1%.
